These are yes or no findings as the source states them, for the method shown. In cells and extracts the contact can be indirect. Binding calls can cover weak binding; strength is not graded here.
Molecular target: EGFP-ERK
Experiment: FRET or BRET; time-lapse tri-molecular FRET microscopy in transiently transfected live cells (4T1 by text and methods, COS7 by the legend); energy transfer from ECFP to EGFP to DsRed; ceritinib 30 µM; rise of the signal in less than 2 h

binding: binds
B1: DsRed-WWOX (protein, UniProt Q9NZC7 1-414)
chain: MAALRYAGLDDTDSEDELPPGWEERTTKDGWVYYANHTEEKTQWEHPKTGKRKRVAGDLPYGWEQETDENGQVFFVDHINKRTTYLDPRLAFTVDDNPTKPTTRQRYDGSTTAMEILQGRDFTGKVVVVTGANSGIGFETAKSFALHGAHVILACRNMARASEAVSRILEEWHKAKVEAMTLDLALLRSVQHFAEAFKAKNVPLHVLVCNAATFALPWSLTKDGLETTFQVNHLGHFYLVQLLQDVLCRSAPARVIVVSSESHRFTDINDSLGKLDFSRLSPTKNDYWAMLAYNRSKLCNILFSNELHRRLSPRGVTSNAVHPGNMMYSNIHRSWWVYTLLFTLARPFTKSMQQGAATTVYCAAVPELEGLGGMYFNNCCRCMPSPEAQSEETARTLWALSERLIQERLGSQSG

From PMC6895976
